± gives the standard deviation of the averaged measurements. Only a part is listed here, and it is no random draw.
How the values were obtained:
Test in all cases: NP40-soluble protein abundance relative to vehicle (solubility fold change) (ratio); higher = more soluble protein in presence of AMP-PNP
[1] = target: T1, DNAJB2 (UniProt P25686)
T1 sequence (whole entry): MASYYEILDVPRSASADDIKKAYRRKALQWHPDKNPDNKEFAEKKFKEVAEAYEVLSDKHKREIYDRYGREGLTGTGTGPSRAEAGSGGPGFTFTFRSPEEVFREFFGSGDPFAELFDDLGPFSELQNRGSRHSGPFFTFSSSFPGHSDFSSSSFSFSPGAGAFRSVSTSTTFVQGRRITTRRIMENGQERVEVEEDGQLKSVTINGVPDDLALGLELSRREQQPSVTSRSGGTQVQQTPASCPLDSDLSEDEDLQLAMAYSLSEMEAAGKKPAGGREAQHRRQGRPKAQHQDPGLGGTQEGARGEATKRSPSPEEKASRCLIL
Method in brief: (§1)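 In three independent experiments, Jurkat crude lysate made by Dounce homogenisation was treated for 10 min at room temperature and then 3 min at 37 °C with eight concentrations ranging from 0.1 to 10 mM. It was then solubilised with 0.8% NP40 plus benzonase for 60 min at 4 °C and ultracentrifuged. The supernatant was TMT-labelled for LC-MS/MS, and each value is the fold change against the detergent-processed vehicle for the same replicate, using vsn-normalised intensities.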

[2] = target: T2, GALNS (UniProt P34059)
T2 sequence (whole entry): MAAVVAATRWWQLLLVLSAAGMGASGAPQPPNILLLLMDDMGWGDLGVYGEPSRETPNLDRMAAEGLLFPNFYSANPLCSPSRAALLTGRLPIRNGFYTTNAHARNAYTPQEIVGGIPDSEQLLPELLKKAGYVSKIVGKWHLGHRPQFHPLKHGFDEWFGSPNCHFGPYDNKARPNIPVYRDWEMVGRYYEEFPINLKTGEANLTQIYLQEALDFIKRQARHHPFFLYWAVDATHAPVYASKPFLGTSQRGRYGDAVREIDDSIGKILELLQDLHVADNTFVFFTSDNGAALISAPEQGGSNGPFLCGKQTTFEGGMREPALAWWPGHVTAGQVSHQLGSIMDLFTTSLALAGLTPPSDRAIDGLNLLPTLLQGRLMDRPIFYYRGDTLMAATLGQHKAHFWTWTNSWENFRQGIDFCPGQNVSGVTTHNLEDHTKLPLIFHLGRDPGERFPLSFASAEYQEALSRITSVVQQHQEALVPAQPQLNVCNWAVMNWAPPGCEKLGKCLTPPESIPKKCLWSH
Method in brief: as §1

[3] = target: T3, GBP1 (UniProt P32455)
T3 sequence (whole entry): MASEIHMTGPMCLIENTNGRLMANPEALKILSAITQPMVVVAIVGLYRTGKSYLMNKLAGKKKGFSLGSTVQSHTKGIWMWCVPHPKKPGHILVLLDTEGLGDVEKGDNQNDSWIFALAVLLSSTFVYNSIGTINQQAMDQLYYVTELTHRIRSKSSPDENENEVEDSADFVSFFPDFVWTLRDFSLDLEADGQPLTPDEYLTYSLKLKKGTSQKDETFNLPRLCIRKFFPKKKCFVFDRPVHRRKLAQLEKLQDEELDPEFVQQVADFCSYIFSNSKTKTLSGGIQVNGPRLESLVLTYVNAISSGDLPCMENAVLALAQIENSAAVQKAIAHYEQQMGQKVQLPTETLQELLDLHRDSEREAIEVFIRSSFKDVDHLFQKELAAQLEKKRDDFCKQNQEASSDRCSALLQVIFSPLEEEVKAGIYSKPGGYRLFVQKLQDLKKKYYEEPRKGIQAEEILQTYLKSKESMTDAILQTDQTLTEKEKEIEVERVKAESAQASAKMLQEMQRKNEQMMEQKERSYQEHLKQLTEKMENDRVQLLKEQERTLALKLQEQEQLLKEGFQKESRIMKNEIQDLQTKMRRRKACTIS
Method in brief: as §1

[4] = target: T4, GLRX (UniProt P35754)
T4 sequence (whole entry): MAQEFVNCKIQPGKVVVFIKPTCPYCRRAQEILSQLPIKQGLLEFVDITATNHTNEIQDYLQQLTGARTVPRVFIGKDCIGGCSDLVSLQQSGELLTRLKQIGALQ
Method in brief: as §1

[5] = target: T5, GSTM3 (UniProt P21266)
T5 sequence (whole entry): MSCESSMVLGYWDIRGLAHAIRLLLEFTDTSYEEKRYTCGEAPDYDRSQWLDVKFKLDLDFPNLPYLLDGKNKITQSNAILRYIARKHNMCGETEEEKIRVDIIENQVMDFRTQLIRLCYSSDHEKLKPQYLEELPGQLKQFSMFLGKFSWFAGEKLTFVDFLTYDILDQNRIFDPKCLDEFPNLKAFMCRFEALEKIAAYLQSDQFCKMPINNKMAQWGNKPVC
Method in brief: as §1

[6] = target: T6, JUND (UniProt P17535)
T6 sequence (whole entry): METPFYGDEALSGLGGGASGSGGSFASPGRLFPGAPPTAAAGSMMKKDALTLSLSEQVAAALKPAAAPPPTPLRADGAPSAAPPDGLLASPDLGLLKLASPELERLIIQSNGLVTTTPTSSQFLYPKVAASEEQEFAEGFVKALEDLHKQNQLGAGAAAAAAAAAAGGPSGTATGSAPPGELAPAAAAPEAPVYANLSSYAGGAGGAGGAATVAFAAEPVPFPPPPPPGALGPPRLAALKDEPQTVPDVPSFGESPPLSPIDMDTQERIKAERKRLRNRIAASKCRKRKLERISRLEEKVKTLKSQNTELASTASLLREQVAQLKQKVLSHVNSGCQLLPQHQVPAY
Method in brief: as §1

[7] = target: T7, PHB (UniProt P35232)
T7 sequence (whole entry): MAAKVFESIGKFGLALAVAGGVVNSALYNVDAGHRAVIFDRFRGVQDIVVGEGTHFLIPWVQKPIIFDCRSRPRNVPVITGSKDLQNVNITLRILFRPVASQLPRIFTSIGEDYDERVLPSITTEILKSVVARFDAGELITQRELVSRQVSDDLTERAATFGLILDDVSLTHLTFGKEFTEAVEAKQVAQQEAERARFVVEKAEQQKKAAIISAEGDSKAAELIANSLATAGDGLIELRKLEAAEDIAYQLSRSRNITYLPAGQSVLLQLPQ
Method in brief: as §1

[8] = target: T8, PPM1A (UniProt P35813)
T8 sequence (whole entry): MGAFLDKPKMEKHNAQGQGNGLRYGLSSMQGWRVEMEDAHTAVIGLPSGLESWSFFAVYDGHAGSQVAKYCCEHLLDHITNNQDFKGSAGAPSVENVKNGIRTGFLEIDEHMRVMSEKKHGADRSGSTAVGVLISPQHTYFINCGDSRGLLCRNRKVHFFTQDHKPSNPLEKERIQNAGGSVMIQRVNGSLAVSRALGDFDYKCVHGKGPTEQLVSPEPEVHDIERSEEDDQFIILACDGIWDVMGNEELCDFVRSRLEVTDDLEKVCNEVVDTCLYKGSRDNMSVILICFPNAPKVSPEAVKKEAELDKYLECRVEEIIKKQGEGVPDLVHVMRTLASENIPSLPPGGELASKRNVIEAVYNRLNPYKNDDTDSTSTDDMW
Method in brief: as §1

For `Nc1ncnc2c1ncn2[C@@H]1O[C@H](COP(=O)(O)OP(=O)(O)NP(=O)(O)O)[C@@H](O)[C@H]1O` [adenylyl imidodiphosphate], the NP40-soluble protein abundance ([1]; concentration: 1mM) was 0.946 ± 0.043, the NP40-soluble protein abundance ([1]; concentration: 2mM) was 0.991 ± 0.037 and the NP40-soluble protein abundance ([1]; concentration: 4mM) was 0.939 ± 0.017. It also gave an NP40-soluble protein abundance ([1]; concentration: 6mM) of 0.943 ± 0.046, an NP40-soluble protein abundance ([1]; concentration: 8mM) of 0.934 ± 0.015 and an NP40-soluble protein abundance ([1]; concentration: 10mM) of 0.9511 ± 0.0087. The NP40-soluble protein abundance ([2]; concentration: 1mM) was 0.986 ± 0.018, the NP40-soluble protein abundance ([2]; concentration: 2mM) was 0.972 ± 0.011 and the NP40-soluble protein abundance ([2]; concentration: 4mM) was 0.957 ± 0.04. It also gave an NP40-soluble protein abundance ([2]; concentration: 6mM) of 0.963 ± 0.019, an NP40-soluble protein abundance ([2]; concentration: 8mM) of 0.933 ± 0.034 and an NP40-soluble protein abundance ([2]; concentration: 10mM) of 0.975 ± 0.027. It also gave an NP40-soluble protein abundance ([3]; concentration: 1mM) of 1.023 ± 0.0016, an NP40-soluble protein abundance ([3]; concentration: 2mM) of 1.06 ± 0.043 and an NP40-soluble protein abundance ([3]; concentration: 4mM) of 1.02 ± 0.034. It also gave an NP40-soluble protein abundance ([3]; concentration: 6mM) of 1.01 ± 0.024, an NP40-soluble protein abundance ([3]; concentration: 8mM) of 0.996 ± 0.038 and an NP40-soluble protein abundance ([3]; concentration: 10mM) of 1.02 ± 0.043. The NP40-soluble protein abundance ([4]; concentration: 1mM) was 0.997 ± 0.033, the NP40-soluble protein abundance ([4]; concentration: 2mM) was 1.01 ± 0.028 and the NP40-soluble protein abundance ([4]; concentration: 4mM) was 1.01 ± 0.027. For the same compound, the NP40-soluble protein abundance ([4]; concentration: 6mM) was 0.966 ± 0.016, the NP40-soluble protein abundance ([4]; concentration: 8mM) was 0.977 ± 0.019 and the NP40-soluble protein abundance ([4]; concentration: 10mM) was 0.941 ± 0.029. For the same compound, the NP40-soluble protein abundance ([5]; concentration: 1mM) was 1.01 ± 0.064, the NP40-soluble protein abundance ([5]; concentration: 2mM) was 0.937 ± 0.029 and the NP40-soluble protein abundance ([5]; concentration: 4mM) was 1.02 ± 0.059. For the same compound, the NP40-soluble protein abundance ([5]; concentration: 6mM) was 1.14 ± 0.13, the NP40-soluble protein abundance ([5]; concentration: 8mM) was 1.13 ± 0.097 and the NP40-soluble protein abundance ([5]; concentration: 10mM) was 1.06 ± 0.078. The NP40-soluble protein abundance ([6]; concentration: 1mM) was 0.977 ± 0.048, the NP40-soluble protein abundance ([6]; concentration: 2mM) was 1.01 ± 0.022 and the NP40-soluble protein abundance ([6]; concentration: 4mM) was 0.955 ± 0.032. It also gave an NP40-soluble protein abundance ([6]; concentration: 6mM) of 0.941 ± 0.078, an NP40-soluble protein abundance ([6]; concentration: 8mM) of 0.933 ± 0.055 and an NP40-soluble protein abundance ([6]; concentration: 10mM) of 0.911 ± 0.051. The NP40-soluble protein abundance ([7]; concentration: 1mM) was 0.956 ± 0.051, the NP40-soluble protein abundance ([7]; concentration: 2mM) was 0.922 ± 0.1 and the NP40-soluble protein abundance ([7]; concentration: 4mM) was 0.914 ± 0.053. It also gave an NP40-soluble protein abundance ([7]; concentration: 6mM) of 0.929 ± 0.066, an NP40-soluble protein abundance ([7]; concentration: 8mM) of 0.916 ± 0.054 and an NP40-soluble protein abundance ([7]; concentration: 10mM) of 0.914 ± 0.061. It also gave an NP40-soluble protein abundance ([8]; concentration: 1mM) of 1.07 ± 0.016, an NP40-soluble protein abundance ([8]; concentration: 2mM) of 1.052 ± 0.0096 and an NP40-soluble protein abundance ([8]; concentration: 4mM) of 1.01 ± 0.033.
